Laboratory results taken from the supplement of paper PMC4683952.
Structures can show the parent of a compound that is named as a salt. Among all 1,200 compounds or so, about 50 (4%) showed activity. Cut-off read from the data, not from the text of the source: all actives reach 1.3 or more but so do some inactives. Some of the results follow.

test system: Lgr5 (MarsCy1-Lgr5-EGFP, U2OS); test: cell-surface Lgr5 expression (SCi1 fluorescence, background-subtracted) relative to WT DMSO (fold of DMSO control); higher = more Lgr5 at the plasma membrane, active = hit call of the paper; conditions: U2OS MarsCy1-Lgr5-EGFP stable; treatment time: overnight; 16 µM; library: Johns Hopkins Clinical Compound Library

| SMILES | cell-surface Lgr5 expression |
| --- | --- |
| NC[C@H]1O[C@H](O[C@H]2[C@H](O)[C@@H](O[C@H]3O[C@H](CO)[C@@H](O)[C@H](N)[C@H]3O)[C@H](N)C[C@@H]2N)[C@H](N)[C@@H](O)[C@@H]1O [Kanamycin B sulfate salt] | inactive: 0.875 |
| CC(=O)O[C@]1(C(C)=O)CC[C@H]2[C@@H]3C=C(C)C4=CC(=O)CC[C@]4(C)[C@H]3CC[C@@]21C [Megestrol Acetate] | inactive: 1.29 |
| Cc1ccc(C(C)C)c(O)c1 [Thymol] | inactive: 1.24 |
| CC(=O)[O-].CC(=O)[O-].O.O.[Zn+2] [Zinc acetate] | inactive: 0.705 |
| Cc1cc(OI)c(C(C)C)cc1-c1cc(C(C)C)c(OI)cc1C [Thymol iodide] | inactive: 1.11 |
| C[C@@H]1O[C@@H](OC[C@H]2O[C@@H](Oc3c(-c4ccc(O)c(O)c4)oc4cc(O)cc(O)c4c3=O)[C@H](O)[C@@H](O)[C@@H]2O)[C@H](O)[C@H](O)[C@H]1O [Rutin trihydrate] | inactive: 0.995 |
| O=[N+]([O-])c1ccc(O)cc1 [4-Nitrophenol] | inactive: 1.17 |
| CN1[C@@H]2CC[C@H]1C[C@@H](OC(c1ccccc1)c1ccccc1)C2 [Benztropine Methane-Sulfonate] | inactive: 0.629 |
| CN1[C@@H]2CC[C@H]1C[C@@H](OC(c1ccccc1)c1ccccc1)C2 [Benztropine mesylate] | inactive: 0.565 |
| CO[C@H]1O[C@H](COS(=O)(=O)O)[C@@H](O[C@@H]2O[C@@H](C(=O)O)[C@@H](O[C@H]3O[C@H](COS(=O)(=O)O)[C@@H](O[C@@H]4O[C@H](C(=O)O)[C@@H](O[C@H]5O[C@H](COS(=O)(=O)O)[C@@H](O)[C@H](O)[C@H]5NS(=O)(=O)O)[C@H](O)[C@H]4O)[C@H](OS(=O)(=O)O)[C@H]3NS(=O)(=O)O)[C@H](O)[C@H]2OS(=O)(=O)O)[C@H](O)[C@H]1NS(=O)(=O)O [Fondaparinux sodium] | inactive: 1.07 |
| O=C(Nc1ccccc1)OCC(CN1CCCCC1)OC(=O)Nc1ccccc1 (stereo unspecified) [Diperodon hydrochloride] | inactive: 0.89 |
| O=C(OCc1ccccc1)c1cccnc1 [Benzyl nicotinate] | inactive: 1.1 |
| CC(=O)Oc1cc(C)c(OC(C)=O)c2ccccc12 [Acetomenaphthone (2-Methyl-1,4-naphthalenediol diacetate)] | inactive: 1.12 |
| CCCCC1C(=O)N(c2ccccc2)N(c2ccccc2)C1=O [Phenylbutazone] | inactive: 1.11 |
| CCC(O)c1ccccc1 (stereo unspecified) [Phenylpropanol (1-phenyl 1-propanol)] | inactive: 1.21 |
| CCCc1nc2c(C)cc(-c3nc4ccccc4n3C)cc2n1Cc1ccc(-c2ccccc2C(=O)O)cc1 [Telmisartan] | inactive: 0.522 |
| O=C1C=CC(=O)C(O)=C1 [Hydroxyquinone] | inactive: 0.824 |
| CNCCCCOc1ccccc1Cc1ccccc1 [Bifemelane] | inactive: 1.23 |
| CCCCOC(=O)c1ccc(O)cc1 [Butyl paraben (Butyl-4-hydroxybenzoate)] | inactive: 0.906 |
| C#C[C@]1(OC(C)=O)CC[C@H]2[C@@H]3CCC4=CC(=O)CC[C@@H]4[C@H]3CC[C@@]21C | inactive: 1.13 |
| CC1=CC(=O)c2ccccc2C1=O [Menadione] | inactive: 0.928 |
| CC1=CC(=O)c2ccccc2C1=O [Vitamin K3] | inactive: 0.794 |

Another view of some results above:
SMILES	cell-surface Lgr5 expression
Cc1ccc(C(C)C)c(O)c1 [Thymol]	inactive: 1.24
CC(=O)[O-].CC(=O)[O-].O.O.[Zn+2] [Zinc acetate]	inactive: 0.705
Cc1cc(OI)c(C(C)C)cc1-c1cc(C(C)C)c(OI)cc1C [Thymol iodide]	inactive: 1.11
C[C@@H]1O[C@@H](OC[C@H]2O[C@@H](Oc3c(-c4ccc(O)c(O)c4)oc4cc(O)cc(O)c4c3=O)[C@H](O)[C@@H](O)[C@@H]2O)[C@H](O)[C@H](O)[C@H]1O [Rutin trihydrate]	inactive: 0.995
O=[N+]([O-])c1ccc(O)cc1 [4-Nitrophenol]	inactive: 1.17
CN1[C@@H]2CC[C@H]1C[C@@H](OC(c1ccccc1)c1ccccc1)C2 [Benztropine Methane-Sulfonate]	inactive: 0.629
CN1[C@@H]2CC[C@H]1C[C@@H](OC(c1ccccc1)c1ccccc1)C2 [Benztropine mesylate]	inactive: 0.565
CO[C@H]1O[C@H](COS(=O)(=O)O)[C@@H](O[C@@H]2O[C@@H](C(=O)O)[C@@H](O[C@H]3O[C@H](COS(=O)(=O)O)[C@@H](O[C@@H]4O[C@H](C(=O)O)[C@@H](O[C@H]5O[C@H](COS(=O)(=O)O)[C@@H](O)[C@H](O)[C@H]5NS(=O)(=O)O)[C@H](O)[C@H]4O)[C@H](OS(=O)(=O)O)[C@H]3NS(=O)(=O)O)[C@H](O)[C@H]2OS(=O)(=O)O)[C@H](O)[C@H]1NS(=O)(=O)O [Fondaparinux sodium]	inactive: 1.07
O=C(Nc1ccccc1)OCC(CN1CCCCC1)OC(=O)Nc1ccccc1 (stereo unspecified) [Diperodon hydrochloride]	inactive: 0.89
O=C(OCc1ccccc1)c1cccnc1 [Benzyl nicotinate]	inactive: 1.1
CC(=O)Oc1cc(C)c(OC(C)=O)c2ccccc12 [Acetomenaphthone (2-Methyl-1,4-naphthalenediol diacetate)]	inactive: 1.12
CCCCC1C(=O)N(c2ccccc2)N(c2ccccc2)C1=O [Phenylbutazone]	inactive: 1.11
CCC(O)c1ccccc1 (stereo unspecified) [Phenylpropanol (1-phenyl 1-propanol)]	inactive: 1.21
CCCc1nc2c(C)cc(-c3nc4ccccc4n3C)cc2n1Cc1ccc(-c2ccccc2C(=O)O)cc1 [Telmisartan]	inactive: 0.522
O=C1C=CC(=O)C(O)=C1 [Hydroxyquinone]	inactive: 0.824
CNCCCCOc1ccccc1Cc1ccccc1 [Bifemelane]	inactive: 1.23
CCCCOC(=O)c1ccc(O)cc1 [Butyl paraben (Butyl-4-hydroxybenzoate)]	inactive: 0.906
C#C[C@]1(OC(C)=O)CC[C@H]2[C@@H]3CCC4=CC(=O)CC[C@@H]4[C@H]3CC[C@@]21C	inactive: 1.13
CC1=CC(=O)c2ccccc2C1=O [Menadione]	inactive: 0.928

(list continues)

| SMILES | cell-surface Lgr5 expression |
| --- | --- |
| CC(=O)/N=c1/sc(S(N)(=O)=O)nn1C [Methazolamide] | inactive: 1.1 |
| N=C(N)N1CCc2ccccc2C1 [Debrisoquin sulfate] | inactive: 1.35 |
| CN(C)CCOc1ccccc1Cc1ccccc1 [Phenyltoloxamine] | inactive: 1.18 |
| c1ccc2c(c1)[nH]c1ccccc12 [Carbazole] | inactive: 0.919 |
| O=C(O)Cc1cc(I)c(Oc2ccc(O)c(I)c2)c(I)c1 [Tiratricol (3,3',5-triiodothyroacetic acid)] | inactive: 1.29 |
| CNCC[C@@H](Oc1ccccc1C)c1ccccc1 [Atomoxetine] | inactive: 0.723 |
| CO[C@H]1C=CO[C@@]2(C)Oc3c(C)c(O)c4c(O)c(c(C=O)c(O)c4c3C2=O)NC(=O)C(C)=CC=C[C@H](C)[C@H](O)[C@@H](C)[C@@H](O)[C@@H](C)[C@H](OC(C)=O)[C@@H]1C [3-formyl Rifamycin] | inactive: 1.12 |
| Cl.Cl.NCCN [Ethylenediamine dihydrochloride] | inactive: 1.05 |
| C=CCOc1ccccc1OCC(O)CNC(C)C (stereo unspecified) [Oxprenolol] | active: 1.42 |
| O=C(O)c1ccc[n+]([O-])c1 [Oxiniacic acid (nicotinic acid n-oxide)] | inactive: 0.989 |
| Cc1cc(C(C)(C)C)cc(C)c1CC1=NCCN1 [Xylometazoline] | inactive: 1.26 |
| CC(C)(CO)[C@@H](O)C(=O)NCCC(=O)O [D-Pantothenic acid calcium salt] | inactive: 1.2 |
| C[C@@H]1C[C@H]2[C@@H]3CCC4=CC(=O)C=C[C@]4(C)[C@@]3(F)[C@@H](O)C[C@]2(C)[C@H]1C(=O)CO | inactive: 1.41 |
| COc1cc2nc(N3CCN(C(=O)C4COc5ccccc5O4)CC3)nc(N)c2cc1OC (stereo unspecified) [Doxazosin mesylate salt] | inactive: 0.689 |
| CC#C[C@]1(O)CC[C@H]2[C@@H]3CCC4=CC(=O)CCC4=C3[C@@H](c3ccc(N(C)C)cc3)C[C@@]21C [Mifepristone] | inactive: 0.55 |
| C[C@@H]1C/C=C/C=C/C=C/C=C/[C@H](O[C@@H]2O[C@H](C)[C@@H](O)[C@H](N)[C@@H]2O)C[C@@H]2O[C@](O)(C[C@@H](O)C[C@H]3O[C@@H]3/C=C/C(=O)O1)C[C@H](O)[C@H]2C(=O)O [Natamycin (Pimaricin)] | inactive: 0.845 |
| CC(C)[C@H](N)C(=O)OCCOCn1cnc2c(=O)nc(N)[nH]c21 [Valacyclovir] | inactive: 0.742 |
| CN1CCN2c3ncccc3Cc3ccccc3C2C1 (stereo unspecified) [Mirtazapine] | inactive: 0.867 |
| COC(=O)N/N=C/c1c[n+]([O-])c2ccccc2[n+]1[O-] [Carbadox] | inactive: 1.02 |
| COc1cc(CNC(=O)CCCC/C=C/C(C)C)ccc1O [Capsaicin] | inactive: 0.962 |
| C=C1O[C@@](CO)(n2cnc3c(N)ncnc32)[C@H](O)[C@@H]1O [Decoyinine] | inactive: 1.19 |
| COC(=O)[C@H](Cc1ccccc1)NC(=O)[C@@H](N)CC(=O)O [Aspartame] | inactive: 0.834 |

| SMILES | cell-surface Lgr5 expression |
| --- | --- |
| CCCCOc1cc(C(=O)OCCN(CC)CC)ccc1N [Benoxinate] | inactive: 0.987 |
| CC(=O)Nc1nnc(S(N)(=O)=O)s1 [Acetazolamide] | inactive: 0.969 |
| O=C(O)C1=C(CSc2nnnn2CS(=O)(=O)O)CS[C@@H]2[C@H](NC(=O)[C@H](O)c3ccccc3)C(=O)N12 [Cefonicid sodium] | inactive: 0.936 |
| [Mg+2].[O-][O-] [Magnesium peroxide] | inactive: 1.12 |
| NC[C@H](O)c1ccc(O)c(O)c1 [Arterenol (Norepinephrine)] | active: 1.3 |
| NC[C@H](O)c1ccc(O)c(O)c1 [Norepinephrine] | inactive: 1.26 |
| CCN(CC)CCNC(=O)c1ccc(N)cc1 [Procainamide HCL] | inactive: 0.981 |
| C[C@@H]1CCC[C@H](C)N1NC(=O)c1ccc(Cl)c(S(N)(=O)=O)c1 [Clopamide] | inactive: 1.3 |
| CC[C@H]1OC(=O)[C@H](C)[C@@H](O[C@H]2C[C@@](C)(OC)[C@@H](O)[C@H](C)O2)[C@H](C)[C@@H](O[C@@H]2O[C@H](C)C[C@H](N(C)C)[C@H]2O)[C@](C)(O)C[C@@H](C)CN(C)[C@H](C)[C@@H](O)[C@]1(C)O [Azithromycin dihydrate] | inactive: 0.522 |
| CN[C@H]1CC[C@@H](c2ccc(Cl)c(Cl)c2)c2ccccc21 [Sertraline hydrochloride] | inactive: 0.149 |
| O=S(=O)([O-])[O-].[Fe+2] [Ferrous sulfate] | inactive: 0.888 |
| O=C(O)c1ccccc1I [2-Iodobenzoic acid] | inactive: 1.04 |
| Nc1ccc(S(=O)(=O)Nc2nccs2)cc1 [Sulfathiazole] | inactive: 1.03 |
| CC(C)NCC(O)COc1ccc(CC(N)=O)cc1 (stereo unspecified) [Atenolol] | inactive: 1.03 |
| CCCCCCCCCCCCCCCC[N+](C)(C)Cc1ccccc1 | inactive: 1.49 |
| CN(CCCCCCCCCCN(C)C(=O)Oc1cccc([N+](C)(C)C)c1)C(=O)Oc1cccc([N+](C)(C)C)c1 [Demecarium bromide] | inactive: 0.912 |
| CCCCCCCC(=O)OCC(COC(=O)CCCCCCC)OC(=O)CCCCCCC [Tricaprilin (Glyceryl trioctanoate)] | inactive: 0.971 |
| O[C@@H]([C@H](O)[C@H](O)CBr)[C@H](O)CBr [Mitobronitol (1,6-Dibromo-1,6-dideoxy-D-mannitol)] | inactive: 1.13 |
| CC1OC2(CS1)CN1CCC2CC1 (stereo unspecified) [Cevimeline hydrochloride] | inactive: 0.73 |
| CC1OC2(CS1)CN1CCC2CC1 (stereo unspecified) [Cevimeline] | inactive: 1.16 |
| CCCCCCCCCCCCCCCC(=O)Oc1ccc(/C(CC)=C(\CC)c2ccc(OC(=O)CCCCCCCCCCCCCCC)cc2)cc1 [Diethylstilbestrol dipalmitate] | inactive: 1.26 |
| C[C@H]1C[C@H]2[C@@H]3CCC4=CC(=O)C=C[C@]4(C)[C@@]3(F)[C@@H](O)C[C@]2(C)[C@@]1(O)C(=O)COP(=O)(O)O [Betamethasone sodium phosphate] | active: 1.35 |
